Source: US20260327239A1, “COMPOUNDS FOR COVALENT INHIBITION OF SHP2” (Purdue Research Foundation, priority 2023, published 2026)
At least one structure is not confirmed: it was looked up by name or label, or the drawing left a doubt.

Molecular target: T1, SHP2 (Homo sapiens, UniProt Q06124)
T1 construct: 4× solution of SHP2 (residues 224-528)
T1 sequence (Q06124 224-528): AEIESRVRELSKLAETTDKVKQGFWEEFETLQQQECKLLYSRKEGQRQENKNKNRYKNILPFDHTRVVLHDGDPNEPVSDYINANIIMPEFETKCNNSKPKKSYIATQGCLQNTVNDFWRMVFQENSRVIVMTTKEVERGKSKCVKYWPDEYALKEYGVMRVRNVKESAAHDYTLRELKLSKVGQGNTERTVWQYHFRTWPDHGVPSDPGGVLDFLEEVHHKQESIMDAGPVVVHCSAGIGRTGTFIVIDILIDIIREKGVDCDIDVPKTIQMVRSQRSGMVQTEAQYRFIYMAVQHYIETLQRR
Test: Covalent adduct formation on SHP2 by intact protein LC-MS
Type: binding
Details: 10 μM SHP2, 60 minutes
Description: To validate covalent modification of SHP2 by the active compounds, adduct formation on SHP2 was measured by intact protein liquid chromatography-mass spectrometry (LC-MS). With intact protein LC-MS, multiply charged states of the protein species can be deconvoluted to achieve the total mass(es). Compounds were incubated with 10 μM SHP2 for 60 minutes before being quenched with acetonitrile for LC-MS analysis by electrospray ionization (ESI) in positive mode. […] (33), and (42) (FIGS. 3A and 3B).
To unfold protein and quench protein-ligand reactivity, 10 μL of treated or untreated 10 μM SHP2 was diluted in 40 μL of 80% (v/v) formic acid initially, followed by 150 μL of LC-MS buffer (50/50 water/acetonitrile with 0.1% formic acid). 20-25 pmol per sample was analyzed by LC/MS (Agilent 1260 Infinity II with a ZORBAX Rapid Resolution High Definition 300 Å Stable Bond C3, 2.1×100 mm, 1.8 μm column) attached to an Agilent 6129 quadrupole mass spectrometer in positive ion mode. The column was held at 45° C. Mobile solution A was 0.1% formic acid in water, and mobile phase B was 0.1% formic acid in acetonitrile. The gradient used was hold at 10% B for 5 min, increase linearly to 80% B for 15 min, and then hold at 80% B for 5 min. […] For all samples, the deconvoluted mass was calculated by taking the m/z range of 730-1100 Da, and deconvoluted mass range from 36500-37200 Da. […]

SMILES: C=CS(=O)(=O)Oc1ccccc1 [PVSN, phenyl vinyl sulfonate, reference compound]
- Found Ligand Adduct (mass shift): 188 Da
